Measured values: US20220411488A1
Substitutions are numbered along the chain they refer to. These are yes or no findings as the source states them, for the method shown. Some entries that bind do so weakly or less than the wild type. One block for each binder: values may come before it.

Molecular target: human ITIH-1 antigen (inter-alpha trypsin inhibitor heavy chain 1) (human)
Experiment: biolayer interferometry, AR2G biosensor (AbClon Inc.)

binding: binds
B1: monoclonal antibody 5D6 against ITIH1 (antibody, V domains shown)
VH: EVQLQQSGAELVKPGTSVKMSCKASGYTFTSYWMHWVRQRPGQGLEWIGDIYPGTDSTNYNEKFKSKATLTVDTSSSTAYMQLSSLTSEDSAVYYCSRSGDYYDYWGQGTTVTVSS
VL: DIVLTQSPASLAVSLGQRATISCRASQSVSTSSYSYMHWYQQKPGQPPKLLIKYASNLESGVPARFSGSGSGTDFTLNIHPVEEEDTATYYCQHSWEIPWTFGGGTKLEIK

binding: binds
B2: monoclonal antibody 9E1 against ITIH1 (antibody, V domains shown)
VH: EVQLQQSGTVLARPGASVKMSCRASGYSFTSYWMHWVKQRPGQGLEWIGSIYPGNTDTNYNQKFKGKAKLTAVTSASTAYMELSSLTNEDSAVYYCTRYGTSEGFAYWGQGTLVTVSA
VL: B1 VL with L4M, T87S, W100P
